Data source: PubChem BioAssay AID1259308 (NCATS, 2017)
In all, the deposit lists about 59,000 reagents; shown is a part drawn at random. About 1,510 of all reagents (2.6%) count as active. 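Calls use total luciferase alone and ignore viability, so some active siRNAs may act by altering cell number.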 A number with no mark means an inactive call. The numbers tell different reagents against one gene apart.

Assay: 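Genes whose loss raises luciferase production in HEK293 cells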 (primary screen)
Cells: human HEK293 embryonic kidney cells stably expressing firefly luciferase (HEK-CMV-Luc2-Hygro)
Knock-down reagent: single siRNA against human genes, 0.8 pmol siRNA per well
Duration: 72 h
Measurement: 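Luciferase light (ONE-Glo) measured on one replicate plate set and viability (CellTiter-Glo) on the other, scaled to a negative control siRNA, with robust z-scores and luciferase per cell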
Scale: total luciferase, z-score and total luciferase, % of control: higher = more reporter protein produced; luciferase per cell, z-score: higher = more reporter output per viable cell; viable cells, % of control: higher = more viable cells
Call rule: 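Active when the median/MAD z-score for overall luciferase is greater than 3; a gene was taken forward for validation with new siRNAs if at least two of its three siRNAs passed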
Calls: active = raised luciferase; inactive = no rise

| Gene | siRNA no. | total luciferase, z-score | total luciferase, % of control | luciferase per cell, z-score | viable cells, % of control |
| --- | --- | --- | --- | --- | --- |
| CRB2 | 1 | -1.32 | 55.7 | -1.53 | 93.2 |
| CRB2 | 2 | 0.534 | 92.5 | 0.895 | 81.7 |
| CRB2 | 3 | 0.457 | 91 | 0.917 | 79.8 |
| ARAP2 | 1 | -0.559 | 70.8 | -0.967 | 102 |
| ARAP2 | 2 | -1.15 | 59 | -1.58 | 100 |
| ARAP2 | 3 | 0.0464 | 82.8 | -0.166 | 96.7 |
| LINC00668 | 1 | -0.0975 | 79.9 | -0.345 | 97.8 |
| LINC00668 | 2 | -0.235 | 77.2 | -0.382 | 95.4 |
| LINC00668 | 3 | -0.0772 | 80.4 | -0.0657 | 91.4 |
| GLRX5 | 1 | 0.167 | 85.2 | 0.421 | 85.2 |
| GLRX5 | 2 | -1.22 | 57.5 | -1.8 | 103 |
| GLRX5 | 3 | -0.788 | 66.2 | -1.57 | 112 |
| OR2B2 | 1 | -0.374 | 74.4 | -1.1 | 111 |
| OR2B2 | 2 | -1.46 | 52.9 | -1.54 | 88.5 |
| OR2B2 | 3 | -2.16 | 38.9 | -1.88 | 71.3 |
| SNCB | 1 | -0.0415 | 81.1 | -0.266 | 97.1 |
| SNCB | 2 | -0.356 | 74.8 | 0.132 | 80.7 |
| SNCB | 3 | -1.37 | 54.7 | -1.92 | 101 |
| IFT54 | 1 | 2.06 | 123 | 1.25 | 98.7 |
| IFT54 | 2 | -1.09 | 60.2 | -1.01 | 87.8 |
| IFT54 | 3 | -0.327 | 75.4 | -0.627 | 99.4 |
| PTGFRN | 1 | -0.269 | 76.5 | -0.506 | 97.7 |
| PTGFRN | 2 | 0.556 | 92.9 | 0.491 | 91.3 |
| PTGFRN | 3 | 0.612 | 94.1 | 0.00598 | 105 |

Taken from above.
For “viable cells, % of control”, OR2B2 #1 shows 111
Under “luciferase per cell, z-score”, PTGFRN #2 reads 0.491
GLRX5 #1, total luciferase, % of control = 85.2
For “luciferase per cell, z-score”, PTGFRN #3 is entered as 0.00598
IFT54 #2, luciferase per cell, z-score: -1.01
Under “luciferase per cell, z-score”, LINC00668 #2 has -0.382

The results go on:
| Gene | siRNA no. | total luciferase, z-score | total luciferase, % of control | luciferase per cell, z-score | viable cells, % of control |
| --- | --- | --- | --- | --- | --- |
| PCDHGC3 | 1 | -1.12 | 59.6 | -1.26 | 92.7 |
| PCDHGC3 | 2 | -1.02 | 61.6 | -0.559 | 79.8 |
| PCDHGC3 | 3 | -0.0468 | 81 | 1.57 | 59.8 |
| TMEM69 | 1 | 0.903 | 99.8 | 0.254 | 104 |
| TMEM69 | 2 | 0.163 | 85.1 | -0.539 | 110 |
| TMEM69 | 3 | 2.81 | 138 | 1.76 | 96.7 |
| ADGRF1 | 1 | -0.691 | 68.2 | -0.721 | 92.1 |
| ADGRF1 | 2 | -0.845 | 65.1 | -0.541 | 83.9 |
| ADGRF1 | 3 | 3.79 (active) | 157 | 4.75 | 50.4 |
| PROX1 | 1 | 2.55 | 133 | 2.62 | 74.2 |
| PROX1 | 2 | -0.356 | 74.8 | -0.806 | 103 |
| PROX1 | 3 | 0.932 | 100 | 0.533 | 97.5 |
| OPTC | 1 | -0.638 | 69.2 | -0.762 | 94.5 |
| OPTC | 2 | -1.34 | 55.3 | -1.58 | 93.7 |
| OPTC | 3 | -0.119 | 79.5 | 0.112 | 86.3 |
| PKP4 | 1 | 2.02 | 122 | 1.74 | 86.4 |
| PKP4 | 2 | -1.53 | 51.5 | -1.57 | 87.1 |
| PKP4 | 3 | -1.04 | 61.3 | -0.834 | 85.3 |
| COASY | 1 | -1.27 | 56.5 | -0.597 | 73.9 |
| COASY | 2 | 0.444 | 90.7 | -0.239 | 108 |
| COASY | 3 | -1.08 | 60.3 | -1.32 | 95.5 |
| VPS13B | 1 | -0.452 | 72.9 | -0.329 | 88.8 |
| VPS13B | 2 | -1.7 | 48.2 | -2.11 | 93.8 |
| VPS13B | 3 | 0.337 | 88.6 | -0.496 | 113 |
| DEFB104A | 1 | 2.15 | 125 | 1.49 | 94 |
| DEFB104A | 2 | -0.195 | 78 | -0.787 | 107 |
| DEFB104A | 3 | 0.375 | 89.3 | 0.0514 | 98.5 |
| ZNF98 | 1 | 0.0747 | 83.4 | 0.255 | 87.1 |
| ZNF98 | 2 | -1.17 | 58.6 | -1.59 | 99.6 |
| ZNF98 | 3 | 0.308 | 88 | -0.297 | 106 |
| SYPL2 | 1 | 0.936 | 100 | 0.951 | 87.4 |
| SYPL2 | 2 | -0.0632 | 80.6 | 0.0655 | 88.6 |
| SYPL2 | 3 | 0.874 | 99.3 | -0.0957 | 114 |
